From PubChem BioAssay AID298 (DTP/NCI, 2004)
The list is a part of this screen's results and no random one: it gathers tests that were run many times, whatever their T/C, doses with no T/C, and many T/C values between a quarter and a half above the control. Other doses and runs of a compound stand elsewhere. T/C is the treated group as % of the vehicle group. Schedule codes are those of the source, taken here to give the interval after Q, in days (D) or hours (H), and the number of doses after X. Some entries hold several experiments; their values stand side by side, smallest first. Some entries give survivors of the animals treated and no T/C: the source files T/C as zero there, which appears to mark a toxic dose or a test without result, not a measured value. Counts of survivors are from the toxicity check (mostly the fifth day) where no day follows; animals may have died later.

Tested on: MX-1 breast xenograft, intrarenal, nude mice, tumor weight
Experiment: NCI In Vivo Anticancer Drug Screen. Data for tumor model Human Mammary Carcinoma MX-1 Xenograft (intrarenal inoculation) in NU/NU BALB/C (nude) mice
Details: T/C endpoint: mean tumor weight change, higher T/C = larger tumour; for T/C: evaluated on day 11
Summary of the method: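 Antitumor activity is expressed as a T/C ratio. The treated group's tumor size or survival is compared against the vehicle-treated control group in mice bearing transplanted tumors.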

C=CC1(C)CC(=O)C2(O)C(C)(O1)C(OC(C)=O)C(O)C1C(C)(C)CCC(O)C12C (configuration not stated)
T/C (dose: 4.0 mg/kg/injection, schedule: Q04DX003 (ip), vehicle: DMSO): 143 % of control | T/C (dose: 32.0 mg/kg/injection, schedule: Q04DX003 (ip), vehicle: DMSO): 130 and 131 % of control | survivor count (dose: 128.0 mg/kg/injection, schedule: Q04DX003 (ip), vehicle: DMSO): 0 of 6 on day 11

COC(=O)C12OCC34C(CC5C(C)C6=CC(=O)OC6=CC5(C)C3C(O)C1O)OC(=O)C(O)C24 (configuration not stated)
survivor count (dose: 4.0 mg/kg/injection, schedule: Q04DX003 (ip), vehicle: Klucel (hydroxypropylcellulose) (HPC)): 0 of 5 on day 11 | survivor count (dose: 5.7 mg/kg/injection, schedule: Q04DX003 (ip), vehicle: Klucel (hydroxypropylcellulose) (HPC)): 0 of 3 on day 11 | survivor count (dose: 8.0 mg/kg/injection, schedule: Q04DX003 (ip), vehicle: Klucel (hydroxypropylcellulose) (HPC)): 0 of 6 on day 11 | survivor count (dose: 9.4 mg/kg/injection, schedule: Q04DX003 (ip), vehicle: Klucel (hydroxypropylcellulose) (HPC)): 0 of 3 on day 11 | survivor count (dose: 16.0 mg/kg/injection, schedule: Q04DX003 (ip), vehicle: Klucel (hydroxypropylcellulose) (HPC)): 0 of 6 on day 11 | survivor count (dose: 18.8 mg/kg/injection, schedule: Q04DX003 (ip), vehicle: Klucel (hydroxypropylcellulose) (HPC)): 0 of 3 on day 11 | survivor count (dose: 32.0 mg/kg/injection, schedule: Q04DX003 (ip), vehicle: Klucel (hydroxypropylcellulose) (HPC)): 0 of 6 on day 11 | survivor count (dose: 37.5 mg/kg/injection, schedule: Q04DX003 (ip), vehicle: Klucel (hydroxypropylcellulose) (HPC)): 0 of 3 on day 11

Cc1cc(N)c2ccccc2[n+]1CCCCCCCCCC[n+]1c(C)cc(N)c2ccccc21
survivor count (dose: 6.0 mg/kg/injection, schedule: Q01DX010 (ip), vehicle: dextrose): 0 of 6 on day 11
